This is one part of the list.

By UniProt entry, the sequences of proteins in these tests, tags left out. Where a name states a change or a piece, a line headed by the entry shows the natural chain unless it says otherwise.
UniProt Q86WJ1: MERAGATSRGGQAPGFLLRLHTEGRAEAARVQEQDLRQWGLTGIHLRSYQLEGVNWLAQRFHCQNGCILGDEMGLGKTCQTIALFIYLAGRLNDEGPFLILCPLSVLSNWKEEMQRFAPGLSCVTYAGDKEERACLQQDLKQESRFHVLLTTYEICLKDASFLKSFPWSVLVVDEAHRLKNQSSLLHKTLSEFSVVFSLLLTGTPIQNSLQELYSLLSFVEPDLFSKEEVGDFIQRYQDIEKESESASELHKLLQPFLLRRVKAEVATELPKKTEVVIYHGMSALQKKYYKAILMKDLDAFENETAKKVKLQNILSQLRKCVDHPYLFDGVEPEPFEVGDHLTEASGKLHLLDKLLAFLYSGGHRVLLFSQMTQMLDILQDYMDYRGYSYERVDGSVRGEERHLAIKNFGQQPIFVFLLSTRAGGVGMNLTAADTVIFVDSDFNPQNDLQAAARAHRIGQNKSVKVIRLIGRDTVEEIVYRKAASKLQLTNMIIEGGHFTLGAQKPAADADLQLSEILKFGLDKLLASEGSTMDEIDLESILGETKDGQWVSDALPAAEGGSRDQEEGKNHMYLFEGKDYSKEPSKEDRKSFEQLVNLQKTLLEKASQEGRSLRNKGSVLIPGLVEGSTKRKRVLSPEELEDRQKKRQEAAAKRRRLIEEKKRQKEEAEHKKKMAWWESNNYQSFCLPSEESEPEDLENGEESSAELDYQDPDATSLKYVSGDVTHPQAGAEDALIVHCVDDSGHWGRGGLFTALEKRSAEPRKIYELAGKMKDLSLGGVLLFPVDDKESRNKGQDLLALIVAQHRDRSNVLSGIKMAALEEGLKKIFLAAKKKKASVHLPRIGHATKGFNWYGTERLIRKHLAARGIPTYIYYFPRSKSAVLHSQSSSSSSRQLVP
UniProt Q9NZJ6: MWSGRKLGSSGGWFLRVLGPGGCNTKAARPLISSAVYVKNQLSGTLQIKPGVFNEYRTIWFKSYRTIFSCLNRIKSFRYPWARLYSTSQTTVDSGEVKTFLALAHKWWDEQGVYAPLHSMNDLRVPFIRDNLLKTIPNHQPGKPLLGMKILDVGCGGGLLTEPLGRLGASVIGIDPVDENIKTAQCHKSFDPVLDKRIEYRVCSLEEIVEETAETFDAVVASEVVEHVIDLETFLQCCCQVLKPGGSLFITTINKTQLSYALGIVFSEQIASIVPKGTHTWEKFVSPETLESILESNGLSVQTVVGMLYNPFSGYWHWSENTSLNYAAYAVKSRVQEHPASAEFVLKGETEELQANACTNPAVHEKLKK
UniProt Q7Z4G1, whole entry: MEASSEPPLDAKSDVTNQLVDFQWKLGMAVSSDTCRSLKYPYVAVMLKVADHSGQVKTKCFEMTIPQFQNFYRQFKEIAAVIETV
UniProt P49336: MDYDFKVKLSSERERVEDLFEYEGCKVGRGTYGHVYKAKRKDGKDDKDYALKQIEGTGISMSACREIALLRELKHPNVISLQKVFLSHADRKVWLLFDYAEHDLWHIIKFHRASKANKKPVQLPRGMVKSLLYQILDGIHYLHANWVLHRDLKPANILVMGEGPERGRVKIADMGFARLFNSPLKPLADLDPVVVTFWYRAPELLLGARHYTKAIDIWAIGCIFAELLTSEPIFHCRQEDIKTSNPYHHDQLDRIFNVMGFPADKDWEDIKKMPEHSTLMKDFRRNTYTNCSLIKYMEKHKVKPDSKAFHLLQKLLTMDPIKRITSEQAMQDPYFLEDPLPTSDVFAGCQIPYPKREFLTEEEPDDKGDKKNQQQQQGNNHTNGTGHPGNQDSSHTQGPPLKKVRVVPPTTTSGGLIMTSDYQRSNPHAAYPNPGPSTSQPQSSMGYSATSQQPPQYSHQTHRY
UniProt P60033: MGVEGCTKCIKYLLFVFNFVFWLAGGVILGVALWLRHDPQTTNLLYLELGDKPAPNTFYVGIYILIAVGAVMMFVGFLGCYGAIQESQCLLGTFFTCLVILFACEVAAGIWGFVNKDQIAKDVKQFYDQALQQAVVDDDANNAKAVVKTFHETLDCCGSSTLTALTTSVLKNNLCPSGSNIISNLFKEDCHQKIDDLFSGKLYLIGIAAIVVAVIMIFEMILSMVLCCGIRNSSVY
UniProt Q10570: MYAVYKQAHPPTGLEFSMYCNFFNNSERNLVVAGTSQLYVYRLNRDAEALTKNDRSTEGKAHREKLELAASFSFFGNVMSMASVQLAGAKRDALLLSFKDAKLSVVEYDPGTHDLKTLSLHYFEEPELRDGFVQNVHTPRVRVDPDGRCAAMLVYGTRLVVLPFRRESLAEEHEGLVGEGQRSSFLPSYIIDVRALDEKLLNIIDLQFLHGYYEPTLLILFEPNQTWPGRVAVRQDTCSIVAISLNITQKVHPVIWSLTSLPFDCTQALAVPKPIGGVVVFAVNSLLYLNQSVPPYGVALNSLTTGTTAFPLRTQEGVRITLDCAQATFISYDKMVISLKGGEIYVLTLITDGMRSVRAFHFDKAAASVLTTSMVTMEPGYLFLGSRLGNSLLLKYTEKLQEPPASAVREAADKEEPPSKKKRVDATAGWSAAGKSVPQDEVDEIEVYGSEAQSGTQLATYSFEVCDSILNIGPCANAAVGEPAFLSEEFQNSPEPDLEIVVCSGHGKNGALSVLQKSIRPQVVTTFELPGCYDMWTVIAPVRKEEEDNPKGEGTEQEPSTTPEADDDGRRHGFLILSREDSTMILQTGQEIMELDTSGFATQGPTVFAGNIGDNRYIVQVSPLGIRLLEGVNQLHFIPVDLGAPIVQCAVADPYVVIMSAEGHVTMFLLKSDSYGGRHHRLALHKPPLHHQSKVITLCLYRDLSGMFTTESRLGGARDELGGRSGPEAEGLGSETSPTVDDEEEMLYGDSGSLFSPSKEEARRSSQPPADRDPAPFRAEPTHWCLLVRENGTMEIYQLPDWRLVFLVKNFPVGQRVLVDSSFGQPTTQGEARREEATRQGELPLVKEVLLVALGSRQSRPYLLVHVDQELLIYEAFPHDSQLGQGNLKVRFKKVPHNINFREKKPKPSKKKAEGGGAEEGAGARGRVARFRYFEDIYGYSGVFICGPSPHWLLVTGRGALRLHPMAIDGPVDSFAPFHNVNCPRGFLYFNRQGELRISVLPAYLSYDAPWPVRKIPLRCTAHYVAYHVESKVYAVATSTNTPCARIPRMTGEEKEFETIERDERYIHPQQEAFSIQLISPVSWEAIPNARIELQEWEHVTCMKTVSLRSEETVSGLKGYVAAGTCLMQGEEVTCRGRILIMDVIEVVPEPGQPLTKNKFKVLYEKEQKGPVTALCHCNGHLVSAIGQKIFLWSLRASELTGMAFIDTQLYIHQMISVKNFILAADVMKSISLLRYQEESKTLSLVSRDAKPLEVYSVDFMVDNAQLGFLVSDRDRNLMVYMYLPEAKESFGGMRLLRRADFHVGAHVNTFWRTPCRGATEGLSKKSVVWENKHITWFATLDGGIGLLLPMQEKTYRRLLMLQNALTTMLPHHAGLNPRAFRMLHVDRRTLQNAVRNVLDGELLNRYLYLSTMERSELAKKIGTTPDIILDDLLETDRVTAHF
UniProt O14967: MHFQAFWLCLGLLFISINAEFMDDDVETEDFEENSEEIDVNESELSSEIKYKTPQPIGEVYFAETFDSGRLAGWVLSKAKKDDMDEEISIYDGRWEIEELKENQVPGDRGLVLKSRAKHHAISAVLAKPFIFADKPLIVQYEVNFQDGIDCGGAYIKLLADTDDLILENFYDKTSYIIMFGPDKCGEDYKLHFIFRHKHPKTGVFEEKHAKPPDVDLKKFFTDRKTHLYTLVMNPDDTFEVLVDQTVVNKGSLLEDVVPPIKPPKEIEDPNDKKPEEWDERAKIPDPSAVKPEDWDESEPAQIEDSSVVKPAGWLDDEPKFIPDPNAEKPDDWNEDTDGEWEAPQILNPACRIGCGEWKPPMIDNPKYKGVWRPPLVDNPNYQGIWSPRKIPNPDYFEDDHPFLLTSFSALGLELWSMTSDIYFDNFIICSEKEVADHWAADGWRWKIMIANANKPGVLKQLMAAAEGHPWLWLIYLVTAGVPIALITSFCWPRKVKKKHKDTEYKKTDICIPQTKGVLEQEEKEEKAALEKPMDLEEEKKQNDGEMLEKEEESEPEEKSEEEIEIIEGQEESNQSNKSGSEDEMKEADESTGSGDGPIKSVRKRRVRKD
UniProt Q9P021, whole entry: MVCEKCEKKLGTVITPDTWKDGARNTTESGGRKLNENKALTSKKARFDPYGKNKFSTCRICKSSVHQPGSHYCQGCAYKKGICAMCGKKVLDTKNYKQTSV
UniProt O15111: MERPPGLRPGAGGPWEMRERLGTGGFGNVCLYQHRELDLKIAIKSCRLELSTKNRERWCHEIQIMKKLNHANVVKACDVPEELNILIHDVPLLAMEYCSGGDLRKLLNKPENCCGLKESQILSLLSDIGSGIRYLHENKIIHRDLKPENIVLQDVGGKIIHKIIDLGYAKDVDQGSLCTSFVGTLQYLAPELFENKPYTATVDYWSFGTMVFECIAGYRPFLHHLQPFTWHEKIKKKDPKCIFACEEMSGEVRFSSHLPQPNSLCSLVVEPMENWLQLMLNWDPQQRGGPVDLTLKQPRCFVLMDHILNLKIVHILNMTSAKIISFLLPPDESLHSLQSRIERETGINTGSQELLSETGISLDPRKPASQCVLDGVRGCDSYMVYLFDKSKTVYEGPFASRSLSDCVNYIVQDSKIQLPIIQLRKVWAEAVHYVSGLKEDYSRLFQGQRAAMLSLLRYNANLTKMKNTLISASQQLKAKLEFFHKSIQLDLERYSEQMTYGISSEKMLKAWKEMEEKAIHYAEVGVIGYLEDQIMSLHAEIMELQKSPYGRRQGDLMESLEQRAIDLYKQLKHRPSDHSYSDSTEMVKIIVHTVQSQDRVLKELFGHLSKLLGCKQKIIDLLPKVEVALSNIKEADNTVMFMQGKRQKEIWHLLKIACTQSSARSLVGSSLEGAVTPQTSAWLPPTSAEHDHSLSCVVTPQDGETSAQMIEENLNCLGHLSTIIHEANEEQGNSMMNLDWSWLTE
UniProt Q8N0S6: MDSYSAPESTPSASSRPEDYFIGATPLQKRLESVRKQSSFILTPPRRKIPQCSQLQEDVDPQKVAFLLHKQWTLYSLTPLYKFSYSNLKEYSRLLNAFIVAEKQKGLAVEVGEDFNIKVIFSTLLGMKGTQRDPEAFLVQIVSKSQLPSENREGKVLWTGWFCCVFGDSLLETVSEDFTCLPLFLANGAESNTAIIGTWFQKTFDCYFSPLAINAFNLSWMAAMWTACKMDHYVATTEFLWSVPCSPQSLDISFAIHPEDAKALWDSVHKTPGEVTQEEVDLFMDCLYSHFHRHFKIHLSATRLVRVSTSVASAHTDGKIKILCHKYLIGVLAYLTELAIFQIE
UniProt Q99618: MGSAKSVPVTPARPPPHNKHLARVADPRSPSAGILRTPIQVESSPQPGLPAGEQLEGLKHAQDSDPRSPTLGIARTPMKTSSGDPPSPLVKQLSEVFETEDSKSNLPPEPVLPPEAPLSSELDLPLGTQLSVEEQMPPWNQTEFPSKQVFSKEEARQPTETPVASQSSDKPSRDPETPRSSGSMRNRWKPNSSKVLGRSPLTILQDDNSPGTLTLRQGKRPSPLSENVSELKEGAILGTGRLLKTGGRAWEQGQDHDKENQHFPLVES
UniProt P14406, whole entry: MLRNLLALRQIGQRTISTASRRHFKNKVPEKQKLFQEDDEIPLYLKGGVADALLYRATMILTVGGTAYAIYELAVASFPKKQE

Compound in this assay: COc1ccc(Cn2ccc3cc(C)c(C(=O)NO)cc32)cc1
The assay is described as follows: dose-dependent thermal stabilisation call (2D-TPP, DLPTP, 10% FDR) (binary (1 = stabilised)); higher = stabilised by the compound. The conditions noted are these: system: HL-60 intact cells; concentration range 0.04-10 µM. As to the method: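 2D thermal proteome profiling in intact HL-60 cells treated with BRD-3811 (0, 0.04, 0.29, 2, 10 uM) for 90 min at 37 C, then heated 3 min at one of 12 temperatures (42-63.9 C). Soluble protein was quantified by TMT10 MS. The value is the DLPTP call of the paper: dose-dependent thermal stabilisation over all temperatures at 10% FDR (F-test of a dose-response against a flat model); one experiment, one call per tested protein.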
In the case of CNNM4 (UniProt Q6P4Q7), the “dose-dependent thermal stabilisation call” value was inactive: 0.

Regarding CLPTM1 (UniProt O96005), the “dose-dependent thermal stabilisation call” value is inactive: 0.

Regarding CHD1L (UniProt Q86WJ1), the “dose-dependent thermal stabilisation call” value is inactive: 0.

In the case of CLCN3 (UniProt P51790), the “dose-dependent thermal stabilisation call” value is inactive: 0.

On to COQ3 (UniProt Q9NZJ6), for which the “dose-dependent thermal stabilisation call” value is inactive: 0.

As to COMMD6 (UniProt Q7Z4G1), the “dose-dependent thermal stabilisation call” value is inactive: 0.

On to COIL (UniProt P38432), for which the “dose-dependent thermal stabilisation call” value was inactive: 0.

Turning to CNDP2 (UniProt Q96KP4), the “dose-dependent thermal stabilisation call” value is inactive: 0.

As to CDK8 (UniProt P49336), the “dose-dependent thermal stabilisation call” value was inactive: 0.

With COPS2 (UniProt P61201), the “dose-dependent thermal stabilisation call” value is inactive: 0.

On to CD81 (UniProt P60033), for which the “dose-dependent thermal stabilisation call” value was inactive: 0.

For the target CNOT8 (UniProt Q9UFF9), the “dose-dependent thermal stabilisation call” value was inactive: 0.

COX3: the “dose-dependent thermal stabilisation call” value was inactive: 0.

For CRNKL1 (UniProt Q9BZJ0), the “dose-dependent thermal stabilisation call” value was inactive: 0.

Turning to CRKL (UniProt P46109), the “dose-dependent thermal stabilisation call” value is inactive: 0.

For the target CHD9 (UniProt Q3L8U1), the “dose-dependent thermal stabilisation call” value is inactive: 0.

Regarding CHERP (UniProt Q8IWX8), the “dose-dependent thermal stabilisation call” value was inactive: 0.

Regarding CP110 (UniProt O43303), the “dose-dependent thermal stabilisation call” value was inactive: 0.

In the case of CPSF1 (UniProt Q10570), the “dose-dependent thermal stabilisation call” value was inactive: 0.

Consider CFL1 (UniProt P23528), for which the “dose-dependent thermal stabilisation call” value is inactive: 0.

As for COPS3 (UniProt Q9UNS2), the “dose-dependent thermal stabilisation call” value is inactive: 0.

Take CLGN (UniProt O14967): the “dose-dependent thermal stabilisation call” value was inactive: 0.

As to CRIPT (UniProt Q9P021), the “dose-dependent thermal stabilisation call” value was inactive: 0.

Regarding CHUK (UniProt O15111), the “dose-dependent thermal stabilisation call” value is inactive: 0.

In the case of CNP (UniProt P09543), the “dose-dependent thermal stabilisation call” value is inactive: 0.

For CENPL (UniProt Q8N0S6), the “dose-dependent thermal stabilisation call” value was inactive: 0.

Consider CDC5L (UniProt Q99459), for which the “dose-dependent thermal stabilisation call” value is inactive: 0.

For CDC37 (UniProt Q16543), the “dose-dependent thermal stabilisation call” value is inactive: 0.

Take CDCA3 (UniProt Q99618): the “dose-dependent thermal stabilisation call” value is inactive: 0.

As to COMMD3 (UniProt Q9UBI1), the “dose-dependent thermal stabilisation call” value was inactive: 0.

Consider CHD8 (UniProt Q9HCK8), for which the “dose-dependent thermal stabilisation call” value is inactive: 0.

Turning to CIAPIN1 (UniProt Q6FI81), the “dose-dependent thermal stabilisation call” value is inactive: 0.

Take CMAS (UniProt Q8NFW8): the “dose-dependent thermal stabilisation call” value is inactive: 0.

CDC37L1 (UniProt Q7L3B6): the “dose-dependent thermal stabilisation call” value was inactive: 0.

In the case of CENPC1 (UniProt Q03188), the “dose-dependent thermal stabilisation call” value is inactive: 0.

In the case of CHTF18 (UniProt Q8WVB6), the “dose-dependent thermal stabilisation call” value was inactive: 0.

As for COX7A2 (UniProt P14406), the “dose-dependent thermal stabilisation call” value was inactive: 0.

In the case of COMMD7 (UniProt Q86VX2), the “dose-dependent thermal stabilisation call” value is inactive: 0.

Turning to CENPV (UniProt Q7Z7K6), the “dose-dependent thermal stabilisation call” value was inactive: 0.

Turning to CPSF3 (UniProt Q9UKF6), the “dose-dependent thermal stabilisation call” value is inactive: 0.

The values are drawn from the supplement of paper PMC7666118.
